# Test results reported in patent US20240228612A1.
# Amino acid sequences for entries named in this document (tags omitted). Residues count along the entry.
# UniProt Q96NY8, residues 32-144: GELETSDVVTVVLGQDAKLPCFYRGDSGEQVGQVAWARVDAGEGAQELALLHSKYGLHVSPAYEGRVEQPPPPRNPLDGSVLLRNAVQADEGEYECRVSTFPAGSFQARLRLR
# Residue numbers refer to the chain shown, from its start. Results are given in words; binding and its absence hold for the method and conditions named. Some binding calls cover weakened binding; strength is not graded here.
# B1: anti-human Nectin-4 humanized monoclonal antibody 31HZ (antibody, human IgG1, kappa, V domains shown)
# VH: QVQLVQSGAEVKKPGSSVKVSCKASGYTFTDYWMNWVRLAPGQGLEWIGMIHPSDSETRLNQKFQGRVTLTVDKSTSTAYMELSSLRSEDTAVYYCARWDFRIYYAMDYWGQGTLVTVSS
# VL: DVVITQSPDSLAVSLGERATINCKSSQSLLNTNSQKNYLAWYQQKPGQSPKLLVYFASTRESGVPDRFSGSGSGTDFTLTISSLQAEDVAVYFCQQHYSTPLTFGGGTKVEIKR
# B2: anti-human Nectin-4 humanized monoclonal antibody 74HZ (antibody, human IgG1, kappa, V domains shown)
# VH: QVQLVQSGAEVKKPGSSVKVSCKASGYTFINYWMNWVRQAPGQGLEWIGMIHPSDSATRLNQSFQGRVTLTVDKSTSTAYMELSSLRSEDTAVYYCARWGNFYTVNAWYYFDYWGQGTLVTVSS
# VL: B1 VL with V2I, S28T, T32S, S34T, V54F, G106Q, V110L
# B3: anti-human Nectin-4 humanized monoclonal antibody 56HZ (antibody, human IgG1, kappa, V domains shown)
# VH: QVQLQESGPGLVKPSQTLSLTCTVSGYFNSITSDYDWHWIRHHPGKGLEWMGYISFSGRTYYNPSLKSRVTISHDTSKNQFSLKLSSVTAADTAVYYCARGNYDGFDYWGQGTLVTVSS
# VL: DIVLTQSPATLSLSPGERATLSCRASQNIGTSIHWYQHKPGQSPRLLIKFASESISGIPARFSGSGSGTDFTLTISSLEPEDFAVYYCQQSKSWPTYTFGGGTKVEIKR
# Target: human Nectin-4 IgV domain overexpressed on A549 cells (human) (UniProt Q96NY8)
# Assay: flow cytometry on A549-Nectin-4-IgV cells, single antibody concentration
row,binding,Binder
1,binds,B1
2,binds,B2
3,binds,B3

# Target: human Nectin-4 IgV domain overexpressed on A549 cells (human) (UniProt Q96NY8)
# Assay: flow cytometry on A549-Nectin-4-IgV cells, 40 µg/mL antibody
row,binding,Binder
1,binds,B1
2,binds,B2
3,binds,B3
